PubChem BioAssay AID1259425 – University of Nebraska Medical Center | 2018
Purpose: 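Compare each knockdown with KSR1 silencing using changes in marker transcripts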 (primary screen). Cells: HCT116 human colon cancer cells. Knock-down reagent: siRNA pool against human genes, 50 nM siRNA. Read-out: 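After 50 nM siRNA pool, branched-DNA assay measures six marker transcripts per well, minus blank, normalised to the geometric mean of two housekeeping transcripts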. Scale: BNIP3L mRNA: higher = more BNIP3L transcript after knockdown; NDRG1 mRNA: higher = more NDRG1 transcript after knockdown; BNIP3 mRNA: higher = more BNIP3 transcript after knockdown; ALDOC mRNA: higher = more ALDOC transcript after knockdown; ACSL5 mRNA: higher = more ACSL5 transcript after knockdown.
The whole screen tested about 14,000 reagents; this is a random part of them. Not stated in the record: the time to read-out.

target gene | PubChem SID | BNIP3L mRNA, set 1 | NDRG1 mRNA, set 1 | BNIP3 mRNA, set 1 | ALDOC mRNA, set 1 | ACSL5 mRNA, set 1
CTRL (chymotrypsin like) | SID363993120 | 0.0351 | 0.065 | 0.276 | -0.00204 | 0.146
TM4SF1 (transmembrane 4 L six family member 1) | SID363998659 | 0.148 | 0.154 | 0.233 | 0.0169 | 0.0607
FAM120C (family with sequence similarity 120 member C) | SID364000579 | 0.147 | 0.173 | 0.382 | 0.0167 | 0.14
SAMD9 (sterile alpha motif domain containing 9) | SID364000421 | 0.0849 | 0.262 | 0.32 | 0.0465 | 0.155
ENG (endoglin) | SID363991454 | 0.119 | 0.17 | 0.197 | 0.0169 | 0.102
HHATL (hedgehog acyltransferase like) | SID364001789 | 0.136 | 0.212 | 0.265 | 0.0124 | 0.247
MEA1 (male-enhanced antigen 1) | SID363998992 | 0.0786 | 0.271 | 0.277 | 0.0125 | 0.253
CCDC183 (coiled-coil domain containing 183) | SID364004247 | 0.116 | 0.129 | 0.227 | 0.0315 | 0.302
TEX13A (testis expressed 13A) | SID364003564 | 0.2 | 0.407 | 0.506 | 0.057 | 0.565
PTPN6 (protein tyrosine phosphatase non-receptor type 6) | SID363993987 | 0.099 | 0.111 | 0.336 | 0.0202 | 0.211
NTRK1 (neurotrophic receptor tyrosine kinase 1) | SID363993701 | 0.0896 | 0.17 | 0.239 | 0.00772 | 0.309
KARS1 (lysyl-tRNA synthetase 1) | SID363996448 | 0.0849 | 0.177 | 0.223 | 0.0223 | 0.124
TBC1D17 (TBC1 domain family member 17) | SID364002973 | 0.167 | 2.68 | 0.38 | 0.0249 | 0.235
NCDN (neurochondrin) | SID363998717 | 0.157 | 0.179 | 0.378 | 0.0196 | 0.169
AGRN (agrin) | SID364005487 | 0.25 | 0.526 | 0.674 | 0.213 | 0.523
BCL2L1 (BCL2 like 1) | SID364004566 | 0.084 | 0.265 | 0.376 | 0.0302 | 0.192
ZEB2 (zinc finger E-box binding homeobox 2) | SID363999111 | 0.0578 | 0.0813 | 0.391 | 0.0109 | 0.288
FLT3 (fms related receptor tyrosine kinase 3) | SID363995129 | 0.191 | 0.39 | 0.5 | 0.0282 | 0.535
NXPH1 (neurexophilin 1) | SID364004744 | 0.076 | 0.385 | 0.273 | 0.0312 | 0.146
RAP1A (RAP1A, member of RAS oncogene family) | SID363994040 | 0.115 | 0.115 | 0.268 | 0.0221 | 0.0973

Records above whose gene name begins with F or f (2):
target gene | PubChem SID | BNIP3L mRNA, set 1 | NDRG1 mRNA, set 1 | BNIP3 mRNA, set 1 | ALDOC mRNA, set 1 | ACSL5 mRNA, set 1
FAM120C (family with sequence similarity 120 member C) | SID364000579 | 0.147 | 0.173 | 0.382 | 0.0167 | 0.14
FLT3 (fms related receptor tyrosine kinase 3) | SID363995129 | 0.191 | 0.39 | 0.5 | 0.0282 | 0.535
